Assay results published in publication doi:10.1101/2023.12.22.573140.
No constants are given. Whether binding was seen depends on the method and setting.

Target: TGM6 domain 3 (TGM6-D3) (Heligmosomoides polygyrus)
Experiment: ITC

binding: no binding
B1: BMP type II receptor (BMPRII) extracellular domain (receptor, UniProt Q13873 27-150)
chain: SQNQERLCAFKDPYQQDLGIGESRISHENGTILCSKGSTCYGLWEKSKGDINLVKQGCWSHIGDPQECHYEECVVTTTPPSIQNGTYRFCCCSTDLCNVNFTENFPPPDTTPLSPPHSFNRDET
